Where two headings read alike, the source gives them in different places. Results are given in words; binding and its absence hold for the method and conditions named. Binding seen in cells or lysates may run through a third protein. These calls come from enrichment with a bait or labelling near it, and not all partners need be listed. Where a sequence is shown, tags or fusion partners need not be part of it. Blank lines part the entries; values can stand above or below the binder they belong to.
Legend:
[1] = biological target: T1, SWI3C-GFP (Arabidopsis thaliana) (UniProt Q9XI07); experiment: affinity purification with mass spectrometry
T1 sequence: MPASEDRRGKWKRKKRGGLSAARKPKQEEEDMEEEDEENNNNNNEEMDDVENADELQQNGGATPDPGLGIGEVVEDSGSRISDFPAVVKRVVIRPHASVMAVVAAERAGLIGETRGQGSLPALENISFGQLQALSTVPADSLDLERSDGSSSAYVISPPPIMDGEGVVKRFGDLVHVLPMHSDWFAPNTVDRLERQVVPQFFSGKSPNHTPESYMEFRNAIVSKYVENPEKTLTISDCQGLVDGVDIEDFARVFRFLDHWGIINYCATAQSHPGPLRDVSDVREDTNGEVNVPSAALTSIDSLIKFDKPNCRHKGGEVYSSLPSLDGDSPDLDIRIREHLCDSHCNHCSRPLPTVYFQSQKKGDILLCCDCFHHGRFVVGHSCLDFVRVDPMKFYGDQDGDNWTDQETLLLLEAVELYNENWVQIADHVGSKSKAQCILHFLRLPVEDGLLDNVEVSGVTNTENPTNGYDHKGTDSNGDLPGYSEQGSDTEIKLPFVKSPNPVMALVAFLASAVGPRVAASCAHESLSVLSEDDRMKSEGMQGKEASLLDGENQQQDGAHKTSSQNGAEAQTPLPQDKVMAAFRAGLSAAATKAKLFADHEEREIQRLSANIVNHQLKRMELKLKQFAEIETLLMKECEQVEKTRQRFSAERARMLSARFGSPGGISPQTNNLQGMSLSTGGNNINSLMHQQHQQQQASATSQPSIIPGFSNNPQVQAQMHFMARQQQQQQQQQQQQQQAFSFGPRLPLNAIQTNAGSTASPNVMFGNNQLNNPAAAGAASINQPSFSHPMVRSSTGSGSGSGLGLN

[2] = biological target: T1, SWI3C-GFP (Arabidopsis thaliana); experiment: affinity purification with mass spectrometry; remark: listed apart in the source

- binding [1]: binds
- binding [2]: binds weakly
B1: actin-related protein 7 (ARP7) (protein, UniProt Q8L4Y5 1-363)
chain: MEALVVDAGSKFLKAGAAIPDQSPAMIIPSQMKRMVDDGSSSADNPTTVFEDVTLDPIERGLIRDWDAMEDLLRYVVYTGLGWEEGNEGNILFTDPLCTPKAIREQLVQLMFETFNVSGFYASEQAVLSLYAVGRISGCTVDIGHGKIDIAPVLEGAVQHIASKRFELGGTELTKLFAQELGKTNPSMNLSMSDVEKLKEQYANCAEDEIAYKKTQNCEIEQHTLPDGQVISIGRERYSVGEALFQPSILGLEEHGIVEQLVRIISTVSSENHRQLLENTVLCGGTTSMTGFESRFQKEANLCSSAIRPTLVKPPEYMPENLGMYSAWVGGAILAKVVFPQNQHVTKADYDETGPSVVHRKCF

- binding [1]: binds
- binding [2]: binds weakly
B2: actin-related protein 4 (ARP4) (protein, UniProt Q84M92 1-441)
chain: MYGGDEVSAIVVDLGSHTCKAGYAGEDAPKAVFPSVIGAVDGVEAMDVDVDSTKTNSNSEDSKTESEKEKSKRKLYVGSQAMSYRRDHMEVLSPIKDGIVSDWDLVDNIWEHAFKSCLMIDPTEHPMLLAEPPLNTQQQREKAAELMFEKYKVPALFMAKNPVLTSFATGRATSLVVDCGGGSTTISPVHDGYVLQKAVVSSPLGGEFLTDCLLKSLESKGIKIRPRYSFKRKEVRAGEFQVEDVDIPDTTESYKLFCQRMIVGDIKDSICRVPDTPYDDKSYSNIPTTSYELPDGQTLEIGADRFKVPDVMFNPSIVQTIPGMEKYAEMIPSVRGLPHMVMESINKCDVDIRRELYSSILLAGGTSSMQQLKERLEKDLIEESPHSARVKVLASGNTTERRFSVWIGGSILASLGSFQQMWFSKSEYEEHGASYIQRKCP
